Test results published in article PMC12016931.
These are yes or no findings as the source states them, for the method shown. In cells and extracts the contact can be indirect. Some entries that bind do so weakly or less than the wild type.

Amino acid sequences for entries named in this document (tags omitted).
UniProt P21728: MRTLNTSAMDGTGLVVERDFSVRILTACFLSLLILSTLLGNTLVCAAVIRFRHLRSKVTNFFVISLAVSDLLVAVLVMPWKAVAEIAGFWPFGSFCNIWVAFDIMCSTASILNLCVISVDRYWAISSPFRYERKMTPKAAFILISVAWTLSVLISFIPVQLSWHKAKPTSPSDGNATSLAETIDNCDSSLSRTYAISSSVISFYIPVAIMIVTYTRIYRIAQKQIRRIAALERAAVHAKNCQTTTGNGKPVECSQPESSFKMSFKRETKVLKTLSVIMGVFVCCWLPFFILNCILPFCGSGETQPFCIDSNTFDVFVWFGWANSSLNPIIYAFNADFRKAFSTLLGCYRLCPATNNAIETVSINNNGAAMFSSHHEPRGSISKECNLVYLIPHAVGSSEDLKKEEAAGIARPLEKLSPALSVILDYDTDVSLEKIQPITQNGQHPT

Assays:
[1] = target: T1, MT-JIP3 (JIP3 R578C), endogenous in patient cells (human (endogenous in patient fibroblasts and patient iPSC-derived neurons)) (UniProt Q9UPT6); test: co-IP; cell lysates precipitated with JIP3 antibody; D1 and JIP3 by Western blot with D1 and JIP3 antibodies; Figure 5 is on CRISPR control and patient iPSC-derived neurons
T1 sequence: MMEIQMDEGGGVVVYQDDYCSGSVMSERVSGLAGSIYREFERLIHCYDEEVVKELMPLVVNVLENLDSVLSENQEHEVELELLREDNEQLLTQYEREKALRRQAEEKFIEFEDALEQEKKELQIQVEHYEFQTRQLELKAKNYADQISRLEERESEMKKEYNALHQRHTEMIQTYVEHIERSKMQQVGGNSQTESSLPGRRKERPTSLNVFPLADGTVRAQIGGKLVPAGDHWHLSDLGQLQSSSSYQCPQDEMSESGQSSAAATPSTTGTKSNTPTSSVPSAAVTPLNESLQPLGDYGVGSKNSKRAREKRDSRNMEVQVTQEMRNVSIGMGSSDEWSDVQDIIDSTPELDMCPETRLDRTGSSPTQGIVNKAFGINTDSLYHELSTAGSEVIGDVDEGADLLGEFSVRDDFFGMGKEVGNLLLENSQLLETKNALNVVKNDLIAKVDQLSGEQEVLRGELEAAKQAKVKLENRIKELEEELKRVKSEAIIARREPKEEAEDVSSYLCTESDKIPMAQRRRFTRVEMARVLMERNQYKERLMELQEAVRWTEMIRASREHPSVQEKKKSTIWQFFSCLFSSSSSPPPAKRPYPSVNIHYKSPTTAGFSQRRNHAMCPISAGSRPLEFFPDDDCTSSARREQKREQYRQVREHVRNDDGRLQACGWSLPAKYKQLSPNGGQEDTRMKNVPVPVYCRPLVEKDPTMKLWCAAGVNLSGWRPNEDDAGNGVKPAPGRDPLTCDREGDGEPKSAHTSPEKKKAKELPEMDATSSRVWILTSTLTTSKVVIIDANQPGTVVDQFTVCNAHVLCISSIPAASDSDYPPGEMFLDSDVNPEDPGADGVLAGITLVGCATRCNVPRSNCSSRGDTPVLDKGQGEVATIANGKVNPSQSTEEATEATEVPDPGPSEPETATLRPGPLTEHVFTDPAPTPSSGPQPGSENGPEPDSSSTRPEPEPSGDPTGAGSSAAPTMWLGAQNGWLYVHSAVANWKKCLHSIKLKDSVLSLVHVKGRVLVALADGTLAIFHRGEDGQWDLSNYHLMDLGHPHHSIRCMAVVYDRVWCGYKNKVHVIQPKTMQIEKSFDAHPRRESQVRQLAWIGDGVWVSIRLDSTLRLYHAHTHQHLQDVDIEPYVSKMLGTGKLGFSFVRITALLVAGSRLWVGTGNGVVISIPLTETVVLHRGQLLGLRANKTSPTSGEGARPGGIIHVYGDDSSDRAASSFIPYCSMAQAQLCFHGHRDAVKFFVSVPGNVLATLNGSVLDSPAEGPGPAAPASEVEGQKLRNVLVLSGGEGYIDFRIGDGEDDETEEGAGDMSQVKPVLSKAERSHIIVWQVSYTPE

[2] = target: T2, JIP3, endogenous wild type of control cells (human (endogenous in control fibroblasts and CRISPR control iPSC-derived neurons)) (UniProt Q9UPT6); test: as above
T2 sequence: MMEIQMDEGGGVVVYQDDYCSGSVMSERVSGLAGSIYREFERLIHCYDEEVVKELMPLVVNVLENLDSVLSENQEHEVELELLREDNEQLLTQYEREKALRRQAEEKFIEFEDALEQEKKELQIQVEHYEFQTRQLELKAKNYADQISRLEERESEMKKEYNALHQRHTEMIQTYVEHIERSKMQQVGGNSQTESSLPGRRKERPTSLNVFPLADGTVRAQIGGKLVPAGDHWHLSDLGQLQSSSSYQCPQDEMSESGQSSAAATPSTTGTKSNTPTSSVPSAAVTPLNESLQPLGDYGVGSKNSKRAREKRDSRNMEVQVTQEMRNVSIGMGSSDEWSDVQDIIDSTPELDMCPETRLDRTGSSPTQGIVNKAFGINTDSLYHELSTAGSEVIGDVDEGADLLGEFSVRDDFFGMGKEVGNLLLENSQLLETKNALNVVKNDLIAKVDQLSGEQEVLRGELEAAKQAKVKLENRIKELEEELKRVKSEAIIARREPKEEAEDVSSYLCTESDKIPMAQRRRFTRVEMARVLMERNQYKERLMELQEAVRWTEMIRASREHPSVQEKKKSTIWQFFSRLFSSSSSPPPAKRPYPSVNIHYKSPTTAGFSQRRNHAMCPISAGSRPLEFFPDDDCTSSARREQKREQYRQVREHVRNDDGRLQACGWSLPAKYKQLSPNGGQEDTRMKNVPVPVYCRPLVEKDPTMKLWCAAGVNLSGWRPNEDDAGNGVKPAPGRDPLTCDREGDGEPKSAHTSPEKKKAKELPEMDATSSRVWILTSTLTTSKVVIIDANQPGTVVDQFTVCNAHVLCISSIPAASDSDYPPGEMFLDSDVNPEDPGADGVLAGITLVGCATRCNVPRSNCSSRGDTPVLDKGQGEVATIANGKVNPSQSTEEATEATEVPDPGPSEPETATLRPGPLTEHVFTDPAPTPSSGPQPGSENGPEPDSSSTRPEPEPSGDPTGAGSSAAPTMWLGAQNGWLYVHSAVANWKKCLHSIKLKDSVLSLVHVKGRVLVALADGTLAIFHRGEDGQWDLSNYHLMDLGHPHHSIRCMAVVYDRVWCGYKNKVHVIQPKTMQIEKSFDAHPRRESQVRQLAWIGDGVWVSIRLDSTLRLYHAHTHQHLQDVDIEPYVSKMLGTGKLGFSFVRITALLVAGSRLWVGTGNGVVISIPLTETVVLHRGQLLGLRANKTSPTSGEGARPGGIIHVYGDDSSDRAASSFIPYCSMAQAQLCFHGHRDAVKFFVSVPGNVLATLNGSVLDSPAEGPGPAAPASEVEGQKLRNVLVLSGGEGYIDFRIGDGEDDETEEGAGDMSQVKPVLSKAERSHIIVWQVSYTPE

dopamine receptor 1 (D1) (from UniProt P21728 1-446)
binding [1]: binds | binding [2]: binds
